The text below walks through data of patent US20210284725A1 (Genentech, published 2021).

No constants are given. Whether binding was seen depends on the method and setting. Some binding calls cover weakened binding; strength is not graded here.

Assay [1] deals with T1, human IL-33 (human, UniProt O95760 112-270, limits assumed).
T1 sequence (looked up): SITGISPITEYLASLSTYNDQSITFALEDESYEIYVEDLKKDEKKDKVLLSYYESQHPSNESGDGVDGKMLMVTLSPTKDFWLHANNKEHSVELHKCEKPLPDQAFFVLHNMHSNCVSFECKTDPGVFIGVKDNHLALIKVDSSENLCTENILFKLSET
In words: SPR sandwich binning: human IL-33 (100 nM) bound to immobilized 1E1v8, then antibody injected at 10 ug/ml for 4 min.

The target of assay [2] is T1, human IL-33. In words: SPR sandwich binning: human IL-33 (100 nM) bound to immobilized 640087-7B, then antibody injected at 10 ug/ml for 4 min.
Assay [3] concerns the target T1, human IL-33. In words: SPR epitope binning (array SPRi): antibody amine-coupled to the chip, human IL-33 injected at 100 nM for 4 min, 25 C.

B1: RG3 (WO 2014/164959) (antibody, V domains shown)
VH: QVLLVQSGAEVKKPGATVKVSCKASGSTFTGYYMHWVRQAPGQGLEWMGWINPNNGGTNYAQKFQGRVTMTRDTSISTAYMELSRLRSDDTAVYYCARELRYNWKSWGQGTLVTVSS
VL: EIVLTQSPGTLSLSPGERVTLSCRASQSVGRPYLAWYQQIPGQAPRLLIYGASSRATDIPDRFSGNGSGTDFTLTISRLEPEDFAVYYCQQYDNSPYTFGQGTRLEIK
With B1, the binding result with human IL-33 [1] is on record as “binds”.

B2: 3F10 (antibody, V domains shown)
VH: QVQLEESGPGLVQPSQTLSLTCTVSGFSLTSQNVHWVRQPPGKGLEWMGRMRFNGDTSYNSTLKSRLSISRDTSKNQVFLRLNSLQTDDTGTYYCARQRDNYGSYYFDDWGQGIMVTVSS
VL: DTVLTQSPALAVSPGERVTISCRASESVLTLLNWYQQKPGQHPKLLIYLASHLESGVPARFSGRGSGTDFTLTIDPVEADDTASYYCQQSWIDPWTFGGGTTLELK
On to B2, for which the binding entry with human IL-33 [1] is listed as “binds”.

B3: RG18 (WO 2014/164959) (antibody, V domains shown)
VH: EVQLVESGGNLEQPGGSLRLSCTASGFTFSRSAMNWVRRAPGKGLEWVSGISGSGGRTYYADSVKGRFTISRDNSKNTLYLQMNSLSAEDTAAYYCAKDSYTTSWYGGMDVWGHGTTVTVSS
VL: DIQMTQSPSSVSASVGDRVTITCRASQGIFSWLAWYQQKPGKAPKLLIYAASSLQSGVPSRFSGSGSGTDFTLTISSLQPEDFAIYYCQQANSVPITFGQGTRLEIK
For the molecule B3, the binding entry with human IL-33 [2] was “binds”.

B4: Ab43 (WO 2018/081075) (antibody, V domains shown)
VH: EVQLVETGGGLIQPGGSLRLSCAASGFTFSFYAMSWVRQAPGKGLEWVSAISGSGGSTYYADSVKGRFTISRDNSKNTLYLQMNSLRAEDTAVYYCARTIHGIRAAYDAFIIWGQGTLVTVSS
VL: EIVLTQSPGTLSLSPGERATLSCRASQSVGINLSWYQQKPGQAPRLLIYGASHRLTGIPDRFSGSGSGTDFTLTISRLEPEDFAVYYCHQYSQPPPFTFGGGTKVEIKR
For the molecule B4, the binding entry with human IL-33 [2] and with human IL-33 [3] was “binds” each time.

B5: 1E1v8 (clone in the epitope binning panel) (antibody, V domains shown)
VH: EVQLVESGGGLVQPGGSLRLSCAASGFTFNNYWMTWIRQAPGKGLEWVASITYTGGGTYYPDSVKGRFTISRDDAKSSLYLQMNSLRAEDTAVYYCTRANYYYNTYGGFPYWGQGTLVTVSS
VL: DIQMTQSPSSLSASVGDRVTITCLASEGFSNDLAWYQQKPGKSPKLLIYAASRLQDGVPSRFSGSGSGTDFTLTISSLQPEDFATYFCQQGSKYPLTFGGGTKVEIKR
Regarding B5, the binding entry in the assay with human IL-33 [2] and with human IL-33 [3] was “binds” each time.

B6: 158LS (WO 2017/187307) (antibody, V domains shown)
VH: EVQLVESGGGLVQPGGSLRLSCAASGFTFSSYWMYWVRQAPGKGLEWVAAITPNAGEDYYPESVKGRFTISRDNAKNSLYLQMNSLRAEDTAVYYCARGHYYYTSYSLGYWGQGTLVTVSS
VL: DIQMTQSPSSLSASVGDRVTITCKASQNINKHLDWYQQKPGKAPKLLIYFTNNLQTGVPSRFSGSGSGTDFTLTISSLQPEDFATYYCFQYNQGWTFGGGTKVEIKR
Turning to B6, the binding entry with human IL-33 [2] is “binds”.
